# Source: PMC4499159
# The exact form of at least one protein or probe is not confirmed. At least one verdict rests on a figure or table, not on a statement of the authors.
# Assays:
# PARP1 (human) = PARP1 (human) (UniProt P09874); assay: fluorescence titration; details: FAM-PARP1, slight increase ([…]), EC50 n.d.; 5'-phosphate on downstream primer; 50 mM HEPES pH 8.0, 100 mM NaCl, 4 mM DTT (+10 mM EDTA for APE1); labelled protein from 20 nM; temperature not stated; recombinant protein; residues 1-1014; protein details: FAM-labelled
# [1] = biological target: AP endonuclease 1 (APE1) (human) (UniProt P27695); assay: fluorescence titration; details: FAM-APE1, 10 mM EDTA, slight increase ([…]), EC50 n.d.; 5'-phosphate on downstream primer; 50 mM HEPES pH 8.0, 100 mM NaCl, 4 mM DTT (+10 mM EDTA for APE1); labelled protein from 20 nM; temperature not stated; recombinant protein
sequence,measurement,setting,value
GGCGATTAAGTTGGG / AACGTCAGGGTCTTCC / GGAAGACCCTGACGTTACCCAACTTAATCGCC [gap-DNA],binding result,PARP1 (human),binds
same,binding result,[1],binds
GGCGATTAAGTTGGGT / AACGTCAGGGTCTTCC / GGAAGACCCTGACGTTACCCAACTTAATCGCC [nick-DNA],binding result,PARP1 (human),binds
